Results taken from paper PMC12607858, “GNAT family Pat2 is required for long-term survival on glycerol and catalyzes lysine acetylation of glycerol kinase in hypersaline-adapted archaea” (mBio, 2025).
No constants are given. Whether binding was seen depends on the method and setting. In cells and extracts the contact can be indirect. A yes stands for co-enrichment or nearness to the bait. Other partners may have been found.

Target: T1, HvPat2-SII Y154A (Haloferax volcanii) (UniProt D4GSS9)
T1 sequence: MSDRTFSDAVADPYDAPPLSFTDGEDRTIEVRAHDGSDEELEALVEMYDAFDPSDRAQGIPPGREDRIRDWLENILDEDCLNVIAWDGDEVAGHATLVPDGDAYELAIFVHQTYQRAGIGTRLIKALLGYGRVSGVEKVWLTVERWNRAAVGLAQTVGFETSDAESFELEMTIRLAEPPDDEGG
Test: affinity purification with mass spectrometry; StrepTactin resin with clarified H. volcanii lysate, 50 mM HEPES pH 7.5, 2 M NaCl, 1 mM TCEP, eluted with 1 mM desthiobiotin; co-purifying band at about 50 kDa cut from the SDS-PAGE gel and identified by LC-MS/MS, compared to the empty vector control

B1: HVO_2384, tandem CBS domain protein with a C-terminal ribosome hibernation factor domain (protein, UniProt D4GWN2 1-380)
chain: MDIADIATPDFIEVDVNERLGKVRSIFERENPKGIIVQDDGEYAGVIGEKQLINSHVEDNTKAAALTKAVPKIDRHENVREVARMLVEGDTKVAPVYEGEKQYGIITQDAILEAVLDNLDALTVEQIYTDDVVTVGERDHLGQAINRLREHGVSRLPVVNDEGRLEGILTTYDLVEFMVRDEGRQGKQDRRGDTDRMLDLPVYDLMTSPARTATPDESVRDAVARMLEHDIAGLVVTPADDDGEVLGVVTKTDVLRALTYTEEEQMDVQVTNIGLIETLSRADINSAITEVADKYQRMSVLHAHVRFHEHKEKLRGTPLIQCQIRLRTSHGQLAGSGEGYGAEHAFHVALDKLERNVLEVKGFEADERYRGQLLRKLNEL
B1 was tested, and the binding was “binds”.
